Results taken from PubChem BioAssay AID504834 (National Center for Advancing Translational Sciences (NCATS), 2011).
In all, about 320,000 compounds went through this assay and about 22,000 (6.9%) were called active. The shares of active, inactive and inconclusive entries below differ from those in the screen. The call rests on the fitted dose curve; in most records, active means well fitted inhibition curve with a large enough effect; inconclusive means small, poorly fitted or top-dose-only effect, or another doubt; inactive means no such curve, though single readings can be large or run the other way. Where the call is inconclusive, the potency comes from a doubtful curve fit.

assay: Primary qHTS for delayed death inhibitors of the malarial parasite plastid, 96 hour incubation; conditions: P. falciparum luciferase reporter growth; series mostly up to 28.7 µM
How it was run: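 P. falciparum expressing integrated firefly luciferase grown in erythrocytes (2% hematocrit, 0.05% parasitemia final) with compounds for 96 hours at 37 C, 5% CO2. Growth inhibition read as loss of luminescence after adding luciferase detection reagent.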
Potency means the concentration at half of the fitted maximal effect.

Question: Which Potency does the source give for `Cc1ccc(S(=O)(=O)N2CCSC2c2ccco2)cc1` (stereo not given) here?
Answer: inconclusive: 18.5 µM [inhibitor, single point]

Question: With `COc1cccc(C(=O)C2CCCN(Cc3cccc4c3OCO4)C2)c1` (stereo not given) as the compound, how does the Potency read?
Answer: inconclusive: 4.65 µM [inhibitor, partial curve]

Question: For `Cc1cccc(COc2ccccc2C(=O)OCC(=O)N(C)c2c(N)n(Cc3ccccc3)c(=O)[nH]c2=O)c1`, which Potency is on record?
Answer: inconclusive: 11.7 µM [inhibitor, single point]

Question: For `COc1ccc(C(=O)NCC(c2cccnc2)N2CCN(c3ccc(F)cc3)CC2)cc1OC` (stereo not given), which Potency is on record?
Answer: inconclusive: 7.38 µM [inhibitor, partial curve, poor fit]

Question: For `C=C(C)C(=O)Nc1cccc(C2=NOC3(C2)C[C@@H](C(N)=O)N(C(=O)c2cc([N+](=O)[O-])cc([N+](=O)[O-])c2C)C3)c1` (stereo not given in full), which Potency is on record?
Answer: inconclusive: 11.7 µM [inhibitor, single point]

Question: With `CCn1c(=O)cc(OCC(=O)N2CCCC2)c2ccccc21` as the compound, how does the Potency read?
Answer: inconclusive: 7.38 µM [inhibitor, partial curve, poor fit]

Question: Which Potency does the source give for `O=C(O)c1cccc(-n2cc(-c3cccc(C(F)(F)F)c3)cn2)c1` here?
Answer: inactive

Question: Which Potency does the source give for `CCN(C(=O)c1ccnn1C)c1ccccc1` here?
Answer: inactive

Question: For `COc1ccc(C(=O)CN2CCN(c3ccc(F)cc3)CC2)cc1`, which Potency is on record?
Answer: inconclusive: 2.62 µM [inhibitor, partial curve]

Question: With `CCCc1[nH]nc2c1C(c1ccc(Br)s1)C(C#N)=C(N)O2` (stereo not given) as the compound, how does the Potency read?
Answer: inconclusive: 0.522 µM [inhibitor, partial curve]

Question: Which Potency does the source give for `CC(C)(C)c1nc(CN2CCCCC2)cc(CN2CCCCC2)c1O` here?
Answer: inconclusive: 4.15 µM [inhibitor, single point]

Question: Which Potency does the source give for `CSc1ccc(C(=O)C2CCCN(Cc3cccn3-c3cccnc3)C2)cc1` (stereo not given) here?
Answer: inactive

Question: With `Cc1cccc(NC(=O)Cn2nc([N+](=O)[O-])c(Br)c2C)n1` as the compound, how does the Potency read?
Answer: inconclusive: 18.5 µM [inhibitor, single point]

Question: For `CC(=O)c1ccc(NC(=O)C2CCCNC2=O)cc1` (stereo not given), which Potency is on record?
Answer: active: 5.22 µM

Question: With `CCOc1cc2[nH]c(=S)n(CCC(=O)NCc3ccco3)c(=O)c2cc1OCC` as the compound, how does the Potency read?
Answer: inconclusive: 18.5 µM [inhibitor, single point]

Question: With `CC1CCCN(S(=O)(=O)c2ccc(NC(=O)CN3CCCCC3)cc2)C1` (stereo not given) as the compound, how does the Potency read?
Answer: inconclusive: 10.4 µM [inhibitor, single point]

Question: With `Cc1ccc(-c2ccc(S(=O)(=O)N3CC(C)OC(C)C3)cc2)cc1` (stereo not given) as the compound, how does the Potency read?
Answer: inactive

Question: With `O=C(Cc1ccc(Cl)cc1)NCC(=O)N1CCN(Cc2ccccc2)CC1` as the compound, how does the Potency read?
Answer: inconclusive: 14.7 µM [inhibitor, partial curve, poor fit]

Question: For `CCn1c2ccccc2c2nc3ccccc3nc21`, which Potency is on record?
Answer: inconclusive: 18.5 µM [inhibitor, single point]

Question: For `NC(=O)C1CCN(c2nc(C3CC3)nc3c2nnn3Cc2ccccc2)CC1`, which Potency is on record?
Answer: inconclusive: 2.08 µM [inhibitor, partial curve]

Question: Which Potency does the source give for `COc1ccc(NC(=O)CCCC2CCCCC2)c(OC)c1` here?
Answer: inactive

Question: For `Cc1ccc(-c2ccc(/C=N/NC(N)=S)o2)cc1`, which Potency is on record?
Answer: inconclusive: 3.7 µM [inhibitor, full curve, poor fit]

Question: For `COCCn1c(C)cc(C(=O)COC(=O)c2ccc(Cl)c(S(N)(=O)=O)c2)c1C`, which Potency is on record?
Answer: inactive

Question: With `Cc1cc(N2CCN(c3ccccc3)CC2)n2nnnc2n1` as the compound, how does the Potency read?
Answer: inactive

Question: With `O=C(CCc1ccccc1)NNC(=O)c1ccco1` as the compound, how does the Potency read?
Answer: inconclusive: 4.15 µM [inhibitor, single point]

Question: For `COC(=O)C1=CN(Cc2cccs2)C=C(C(=O)OC)C1c1cccc(O)c1`, which Potency is on record?
Answer: inconclusive: 1.31 µM [inhibitor, partial curve, poor fit]

Question: For `COc1ccc2oc(C(=O)OCC(=O)NC3CCCC3)c(C)c2c1`, which Potency is on record?
Answer: inactive

Question: Which Potency does the source give for `COc1ccc(Cl)cc1S(=O)(=O)NC(C)C(=O)NCCCn1ccnc1` (stereo not given) here?
Answer: active: 13.1 µM

Question: With `COc1ccc(C(=O)Nc2nnc(CC(=O)N/N=C/c3ccc(O)cc3O)s2)cc1` as the compound, how does the Potency read?
Answer: inconclusive: 18.5 µM [inhibitor, single point]

Question: For `CN(C(=O)c1ccc(N2CCOCC2)c([N+](=O)[O-])c1)C1CCCCC1`, which Potency is on record?
Answer: inactive

Question: With `CC(=O)c1cc(C(=O)N2CCc3c([nH]c4ccccc34)C2CC(C)C)[nH]n1` (stereo not given) as the compound, how does the Potency read?
Answer: active: 9.28 µM

Question: With `CN(C)c1ccc(N2C(=NC(=O)CCC3CCCC3)SC3CS(=O)(=O)CC32)cc1` (stereo not given) as the compound, how does the Potency read?
Answer: inactive

Question: Which Potency does the source give for `Cc1cc(-c2nnc(SCC(=O)Nc3ccccn3)o2)no1` here?
Answer: inactive

Question: For `Cc1ccc2nc(NC(=O)Cn3cc4c(n3)CCCCC4)sc2c1`, which Potency is on record?
Answer: inactive

Question: Which Potency does the source give for `CC(c1ccc(F)cc1)n1cc(S(=O)(=O)N2CCCC2)ccc1=O` (stereo not given) here?
Answer: inconclusive: 10.4 µM [inhibitor, partial curve]

Question: With `O=C(NCc1ccc(F)cc1)c1cc2n(n1)C(C(F)(F)F)CC(C1CC1)N2` (stereo not given) as the compound, how does the Potency read?
Answer: inconclusive: 9.28 µM [inhibitor, partial curve, poor fit]

Question: Which Potency does the source give for `CC(C)SCc1cc(N2CCCC2)nc(-c2ccccc2)n1` here?
Answer: inconclusive: 0.828 µM [inhibitor, single point]

Question: With `O=C(NNC(=O)c1ccncc1)c1ccncc1` as the compound, how does the Potency read?
Answer: inactive

Question: For `CCC1CCCCN1C(=S)NC(=O)c1cc(Br)ccc1Cl` (stereo not given), which Potency is on record?
Answer: inconclusive: 18.5 µM [inhibitor, single point]

Question: With `N/C(=N\c1nc2c(c(=O)[nH]1)CCC2)Nc1cccc2ccccc12` as the compound, how does the Potency read?
Answer: inactive

Question: With `CCCN(CCC)Cc1c(C(=O)N/N=C/c2ccc(C)o2)nnn1-c1nonc1N` as the compound, how does the Potency read?
Answer: inconclusive: 0.0828 µM [inhibitor, full curve, poor fit]

Question: With `COc1cc(OC)cc(-c2c(-c3ccsc3)c3cc(Br)ccc3n2C)c1` as the compound, how does the Potency read?
Answer: inconclusive: 1.85 µM [inhibitor, single point]

Question: For `COc1cc(-c2cc(C(=O)Nc3ccc(N4CCOCC4)cc3)c3ccccc3n2)cc(OC)c1OC`, which Potency is on record?
Answer: active: 5.86 µM

Question: With `COc1ccccc1NC(=O)c1ccc2c(c1)nnn2C` as the compound, how does the Potency read?
Answer: inconclusive: 14.7 µM [inhibitor, single point]

Question: Which Potency does the source give for `CCC(C)N1CCCC1C(=O)Nc1c(C)cc(C)cc1C` (stereo not given) here?
Answer: inconclusive: 14.7 µM [inhibitor, single point]

Question: Which Potency does the source give for `COc1ccc(N/N=C/c2c(O)n(-c3cccc(C)c3)c(=O)[nH]c2=O)cc1` here?
Answer: inactive

Question: With `CC(OC(=O)c1cc(=O)c2cc(Cl)ccc2o1)C(=O)N1CCCC1` (stereo not given) as the compound, how does the Potency read?
Answer: inactive

Question: For `Cc1c(Cl)cccc1NC(=S)N(CCN(C)C)C(C)c1ccco1` (stereo not given), which Potency is on record?
Answer: inactive

Question: Which Potency does the source give for `Cc1cccc(C(=O)NN2S(=O)(=O)c3ccccc3S2(=O)=O)c1` here?
Answer: inactive

Question: For `Cc1ccc(-n2cc(CN(C)Cc3nccn3C)c(-c3cccc(C)c3)n2)cc1`, which Potency is on record?
Answer: active: 3.7 µM

Question: For `CC(=O)O[C@H]1CC(=O)OC(C)(C)C2CC(=O)[C@]3(C)C(CC[C@@](C)([C@@H](O[C@@H]4O[C@H](CO)[C@@H](O)[C@H](O)[C@H]4O)c4ccoc4)[C@@]34O[C@@H]4C(=O)O)[C@]21C` (stereo not given in full), which Potency is on record?
Answer: inactive

Question: For `COc1cc(CNc2ncn[nH]2)cc(Br)c1OC`, which Potency is on record?
Answer: inconclusive: 18.5 µM [inhibitor, single point]

Question: With `COc1ccc(NC(=O)CN(C)C(=O)c2cn(-c3ccccc3)nc2-c2ccc(F)cc2)cc1` as the compound, how does the Potency read?
Answer: inconclusive: 13.1 µM [inhibitor, partial curve]

Question: Which Potency does the source give for `CC(C)(C)NC(=O)COc1coc(CN2CCN(Cc3ccccc3)CC2)cc1=O` here?
Answer: inconclusive: 9.28 µM [inhibitor, single point]

Question: For `CN(CP(=O)(O)C(O)c1ccccc1)S(C)(=O)=O` (stereo not given), which Potency is on record?
Answer: inactive

Question: With `O=C(CSc1ccc(-c2cccs2)nn1)N1CCCCCC1` as the compound, how does the Potency read?
Answer: inconclusive: 18.5 µM [inhibitor, single point]

Question: Which Potency does the source give for `CCC12CN3CCN(CC(C3)/C1=N/NC(N)=O)C2` here?
Answer: inactive

Question: For `CCCSc1cc(N2CCOCC2)nc(-c2ccccc2Cl)n1`, which Potency is on record?
Answer: active: 11.7 µM

Question: With `Cc1ccc(C(=O)N2N=C(c3cccc(NS(C)(=O)=O)c3)CC2c2cccs2)cc1` (stereo not given) as the compound, how does the Potency read?
Answer: inconclusive: 11.7 µM [inhibitor, partial curve]

Question: With `CCCn1c(C2CCCN2c2nc(-c3ccc(OC)cc3)cs2)nc2ccccc21` (stereo not given) as the compound, how does the Potency read?
Answer: inconclusive: 6.57 µM [inhibitor, partial curve, poor fit]

Question: For `Cc1c(Cl)cccc1NC(=O)N1CCCN(c2nc(-c3ccccc3)ns2)CC1`, which Potency is on record?
Answer: inconclusive: 10.4 µM [inhibitor, single point]

Question: For `COc1ccc([C@@H]2CC=C(C(=O)O)[C@H](c3ccccc3F)N2S(=O)(=O)c2ccccc2C)cc1`, which Potency is on record?
Answer: inconclusive: 18.5 µM [inhibitor, single point]

Question: With `CCOc1ccccc1NC(=O)[C@@H](NC(=O)c1ccccc1F)C(C)C` as the compound, how does the Potency read?
Answer: inactive

Question: With `Cc1ccccc1NC(=O)CCCn1nc(C)c2c(C)n(-c3ccccc3)nc2c1=O` as the compound, how does the Potency read?
Answer: inconclusive: 8.28 µM [inhibitor, partial curve, poor fit]

Question: Which Potency does the source give for `O=C(Nc1ccccc1F)c1ccc(COc2ccc(Cl)cc2Cl)o1` here?
Answer: inactive

Question: Which Potency does the source give for `CC(C)OP(=O)(OC(C)C)C1(NS(=O)(=O)c2ccc(Cl)cc2)C=C(Cl)C(=O)C(Cl)=C1` here?
Answer: inconclusive: 13.1 µM [inhibitor, single point]

Question: For `COc1ccc(Cl)c2sc(N(CCN(C)C)C(=O)c3ccc4c(c3)OCCO4)nc12`, which Potency is on record?
Answer: inconclusive: 11.7 µM [inhibitor, single point]

Question: For `CCCCCn1c(=O)[nH]c2cc(C(=O)NCCCN(CC)CC)ccc2c1=O`, which Potency is on record?
Answer: inconclusive: 10.4 µM [inhibitor, single point]

Question: For `CC(C)CCNC(=O)c1ccc2c(c1)ncn2C1CCCC1`, which Potency is on record?
Answer: inconclusive: 4.15 µM [inhibitor, full curve, poor fit]

Question: With `O=c1[nH]c(CSc2nnc(NCCCN3CCOCC3)s2)nc2cc(Cl)ccc12` as the compound, how does the Potency read?
Answer: inconclusive: 0.0033 µM [inhibitor, full curve, poor fit]
